From PubChem BioAssay AID2551 (National Center for Advancing Translational Sciences (NCATS), 2010)
Values joined by “and” are separate entries in the source; they are usually repeats but may differ in a detail not shown here. Identical values can stand only once. About 17,000 (5.5%) of roughly 310,000 compounds were called active. Inconclusive results, whose numbers are uncertain, are shown with a selection of clear calls. Calls follow the shape of the dose curve; as a rule, active = well fitted inhibition curve with a large enough effect; inconclusive = small, poorly fitted or top-dose-only effect, or effect the other way; inactive = no such curve, though single readings can be large or run the other way. A potency beside an inconclusive call is a rough fit, not a confirmed value.

Amino acid sequences for entries named in this document (tags omitted). A change or cut given only in a name is not applied to a line headed by its entry.
UniProt P51450: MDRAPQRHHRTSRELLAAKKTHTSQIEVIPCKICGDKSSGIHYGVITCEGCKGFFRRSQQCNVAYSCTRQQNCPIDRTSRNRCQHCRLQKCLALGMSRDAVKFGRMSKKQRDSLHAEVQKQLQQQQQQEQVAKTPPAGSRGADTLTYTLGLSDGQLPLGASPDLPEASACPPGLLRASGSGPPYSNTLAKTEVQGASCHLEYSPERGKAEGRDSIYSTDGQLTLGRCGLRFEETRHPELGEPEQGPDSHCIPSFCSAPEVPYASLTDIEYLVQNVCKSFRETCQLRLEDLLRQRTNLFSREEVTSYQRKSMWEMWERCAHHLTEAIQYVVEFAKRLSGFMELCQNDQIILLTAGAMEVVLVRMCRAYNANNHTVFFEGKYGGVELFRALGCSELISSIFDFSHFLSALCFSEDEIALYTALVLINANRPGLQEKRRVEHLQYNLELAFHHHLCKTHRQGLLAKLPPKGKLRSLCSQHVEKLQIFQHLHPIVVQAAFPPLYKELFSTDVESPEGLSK

What follows are compounds tested against Nuclear receptor ROR-gamma (Mus musculus) (UniProt P51450) (assay: qHTS for inhibitors of ROR gamma transcriptional activity). Conditions: Drosophila S2 Gal4-RORgamma UAS-luciferase reporter, 20 h; activity change, negative = inhibition: at 53.6 µM (top of the series).
Outline: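 Compounds are pin-transferred onto Drosophila Schneider cells expressing a copper-inducible Gal4–ROR gamma transactivation domain fusion. After 1 hr, copper sulfate is added to 700 uM final; luciferase is read 20 hr later.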
% is scaled to controls: 0 for no effect and ±100 for the full control effect; potency is read from the fitted curve at half-maximal effect.
Also: nearly all actives have a fitted effect of over 60% in size.

Compound	activity change, negative = inhibition	Potency
COc1ccc(OC)c(Nc2nc(-c3cccs3)cs2)c1	inactive: -8.62%	–
c1ccc2cc(CSCc3nc4ccccc4[nH]3)ccc2c1	–	inconclusive: 35.5 µM [inhibitor, single point]
O=C(NC(=S)Nc1ccccc1N1CCOCC1)c1sc2ccccc2c1Cl	–	inconclusive: 3.55 µM [inhibitor, single point]
CCOc1nc(NC2CCCCC2)nc(NC(C)(C)C)n1	–	inconclusive: 35.5 µM [inhibitor, single point]
C=CCn1c(NCc2ccc(OC)cc2O)nc2ccccc21	–	inconclusive: 22.4 µM [activator, partial curve, poor fit]
COc1ccc(CN(CC2CCCO2)C(=O)CN2C(=O)C(C)Oc3ccc(C)cc32)cc1OC (centres undefined)	–	inconclusive: 17.8 µM [activator, partial curve]
COc1ccccc1/C=N/NC(=O)c1ccc(Br)cc1	–	active: 12.6 µM
Cc1cc(C(=O)CN2C(=O)NC3(CCCc4ccccc43)C2=O)c(C)n1Cc1ccco1 (centres undefined)	–	inconclusive: 20 µM [activator, single point]
CCNC(=S)Nc1cccc(F)c1C	–	active: 12.6 µM
CC1CCN(C(=O)CN(c2ccc(Oc3ccccc3)cc2)S(C)(=O)=O)CC1	–	inconclusive: 10 µM [activator, partial curve]
NCCO/C=C/[C@H](N)C(=O)O	inactive: 14.5% [at 10 µM]	–
O=C(Nc1ccc(OC(=O)c2ccco2)cc1)c1ccco1	–	inconclusive: 31.6 µM [activator, single point]
COc1ccccc1/C=C/C=N/NC(=O)c1cccs1	–	active: 7.94 µM
COc1cc(C(=S)N2CCOCC2)ccc1OS(=O)(=O)c1ccc(Cl)cc1	–	inconclusive: 31.6 µM [activator, single point]
COc1ccc(O)c(/C=c2/sc3nc4cc(C)c(C)cc4n3c2=O)c1	–	inconclusive: 35.5 µM [inhibitor, single point]
COc1ccc(NC(=O)CCOc2ccccc2)c(OC)c1	–	inconclusive: 15.8 µM [activator, partial curve]
COc1cc(C(=O)Nc2ccc3c(c2)ncn3C(C)(C)C)cc(OC)c1OC	–	inconclusive: 3.98 µM [activator, full curve]
CCCCn1c(SCC(=O)N2CCC(C(=O)OCC)CC2)nc2cc(S(N)(=O)=O)ccc21	–	inconclusive: 1.12 µM [activator, partial curve, poor fit]
Cc1cc(N2CCCN(C)CC2)nc2cc(Cl)ccc12	–	inconclusive: 3.16 µM [inhibitor, partial curve, poor fit]
O=C(Nc1nc(=O)c2ccccc2s1)c1ccc(F)cc1	–	active: 7.08 µM
CC(=O)N1CCc2cc(S(=O)(=O)NCCN3CCC(C)CC3)ccc21	inactive: -12.6%	–
CS(=O)(=O)N(CC(=O)Nc1ccc(S(=O)(=O)N2CCCC2)cc1)c1cccc(F)c1	–	inconclusive: 35.5 µM [activator, single point]

Compound	activity change, negative = inhibition	Potency
CC1CCN(S(=O)(=O)c2ccc(C(=O)Nc3nnc(-c4ccccn4)o3)cc2)CC1	inactive: -0.593%	–
Oc1cccc(/C=N/Nc2ccc(Cl)nn2)c1O	–	active: 1.41 µM
COc1ccc(N(C(=O)c2ccncc2)S(=O)(=O)c2cccs2)cc1	–	inconclusive: 20 µM [activator, single point]
O=C(Nc1ccc(-n2nncc2-c2ccco2)cc1)c1cccc(F)c1	–	inconclusive: 22.4 µM [activator, single point]
Cc1cc(C(=O)NC2=NCCS2)c2ccccc2n1	–	inconclusive: 22.4 µM [inhibitor, single point]
O=C(N/N=C/c1ccc(-c2ccc([N+](=O)[O-])cc2)o1)[C@H]1C[C@@H]1c1ccccc1	inactive: 16.6%	–
Brc1ccc2c(c1)OCCOCCOc1cc(Br)ccc1OCCOCCOCCO2	–	inconclusive: 31.6 µM [inhibitor, single point]
CCOC(=O)C1CCN(C(=O)c2ccc(N(C)S(=O)(=O)c3ccc(OC)cc3)cc2)CC1	inactive: 33.9%	–
O=C(NCc1ccc(Cl)cc1)C1CCN(S(=O)(=O)c2cc([N+](=O)[O-])ccc2Cl)CC1	–	inconclusive: 1.78 µM [activator, full curve]
CCn1c(NC(=O)/C=C/c2ccc(F)cc2)nc2ccccc21	–	active: 1.26 µM
O=C(NCCc1ccccc1)C1CCC(Cn2c(=O)c3ccccc3n(Cc3cccnc3)c2=O)CC1 (centres undefined)	–	inconclusive: 3.16 µM [activator, partial curve]
Cc1[nH][nH]c(=O)c1C(c1ccc(-c2ccc(C(=O)O)cc2)o1)c1c(C)[nH][nH]c1=O	inactive: 0.914%	–
COc1cc(/C=C2/CCC/C(=C\c3cc(O)c(OC)c(Cl)c3)C2=O)cc(Cl)c1O	–	inconclusive: 31.6 µM [inhibitor, single point]
CCCCOC(=O)C1=C(C)NC(=O)NC1c1cccc([N+](=O)[O-])c1 (centres undefined)	–	inconclusive: 10 µM [activator, partial curve]
COc1ccc(/C=C2\SC(=S)N(CCC(=O)N(CCO)Cc3ccccc3)C2=O)cc1OC	–	inconclusive: 25.1 µM [inhibitor, single point]
Cc1csc(NC(=O)C2CSC3(C)CCC(=O)N23)n1 (centres undefined)	inactive: 10.8%	–
O=C(Nc1ccc2c(c1)N(Cc1ccccc1)C(=O)c1ccccc1S2)NC1CC1	–	inconclusive: 17.8 µM [inhibitor, single point]
Oc1c(CN2CCN(c3ccc(F)cc3)CC2)cc(Cl)c2cccnc12	–	active: 0.562 µM
CCC1CCCCN1S(=O)(=O)c1ccc(NC(=O)c2cccs2)cc1 (centres undefined)	–	inconclusive: 11.2 µM [activator, partial curve, poor fit]
COc1cccc(C2=Nn3c(nnc3-c3ccccc3O)SC2)c1	–	inconclusive: 20 µM [inhibitor, single point] and inconclusive: 17.8 µM [inhibitor, single point]
COc1ccc(C(=O)NC(=S)N2CCN(c3ccccc3OC)CC2)cc1	–	active: 2 µM
COc1cc(/C=N/Nc2snc(SC)c2C#N)ccc1O	inactive: -31.7%	–
